From PMC5940416
These are yes or no findings as the source states them, for the method shown. Binding seen in cells or lysates may run through a third protein. Some entries that bind do so weakly or less than the wild type.

The chains behind the UniProt entries cited, without tags or fusion partners.
UniProt O95373: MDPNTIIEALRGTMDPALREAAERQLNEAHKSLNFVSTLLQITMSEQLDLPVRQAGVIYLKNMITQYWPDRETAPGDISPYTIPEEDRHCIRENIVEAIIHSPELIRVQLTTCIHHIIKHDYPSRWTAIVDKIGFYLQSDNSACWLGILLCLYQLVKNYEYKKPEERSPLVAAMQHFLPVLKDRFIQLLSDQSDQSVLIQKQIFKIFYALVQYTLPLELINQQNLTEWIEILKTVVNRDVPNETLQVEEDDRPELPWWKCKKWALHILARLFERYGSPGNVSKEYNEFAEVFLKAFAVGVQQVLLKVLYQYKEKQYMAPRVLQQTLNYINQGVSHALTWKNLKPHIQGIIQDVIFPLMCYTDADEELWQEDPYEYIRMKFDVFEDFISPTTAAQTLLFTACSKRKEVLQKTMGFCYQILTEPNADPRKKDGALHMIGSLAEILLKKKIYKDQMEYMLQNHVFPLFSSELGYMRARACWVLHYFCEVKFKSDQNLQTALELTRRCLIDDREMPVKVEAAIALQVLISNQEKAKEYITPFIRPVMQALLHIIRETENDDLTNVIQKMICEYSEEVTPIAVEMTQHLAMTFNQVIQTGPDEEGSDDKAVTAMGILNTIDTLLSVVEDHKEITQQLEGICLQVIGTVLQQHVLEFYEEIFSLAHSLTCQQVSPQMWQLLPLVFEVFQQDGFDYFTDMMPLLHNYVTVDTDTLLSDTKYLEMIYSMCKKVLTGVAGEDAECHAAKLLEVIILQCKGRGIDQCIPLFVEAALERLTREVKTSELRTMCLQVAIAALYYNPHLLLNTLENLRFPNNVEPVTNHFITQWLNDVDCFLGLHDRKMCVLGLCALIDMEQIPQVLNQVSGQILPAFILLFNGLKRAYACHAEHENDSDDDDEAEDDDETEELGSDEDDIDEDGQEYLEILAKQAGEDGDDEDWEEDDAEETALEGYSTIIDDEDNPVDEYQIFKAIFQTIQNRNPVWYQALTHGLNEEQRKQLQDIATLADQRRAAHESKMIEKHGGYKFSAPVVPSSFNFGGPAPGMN

Target: importin-7/RanBP7 (IPO7) (human (endogenous in PLC/PRF/5 and Huh7)) (UniProt O95373)
Test: co-IP; endogenous proteins; ~200 ug whole cell lysate (IP lysis buffer, protease inhibitors) of PLC/PRF/5 and Huh7 cells, for p-Erk and IPO7 from cells infected with empty or MTBP lentiviral vector; protein-specific antibodies overnight at 4 C, protein A/G plus-agarose; western blotting; isotype controls

binding: binds
B1: MDM2 Binding Protein (MTBP), endogenous (protein, UniProt Q96DY7 1-904)
chain: MDRYLLLVIWGEGKFPSAASREAEHGPEVSSGEGTENQPDFTAANVYHLLKRSISASINPEDSTFPACSVGGIPGSKKWFFAVQAIYGFYQFCSSDWQEIHFDTEKDKIEDVLQTNIEECLGAVECFEEEDSNSRESLSLADLYEEAAENLHQLSDKLPAPGRAMVDIILLLSDKDPPKLKDYLPTVGALKHLREWYSAKITIAGNHCEINCQKIAEYLSANVVSLEDLRNVIDSKELWRGKIQIWERKFGFEISFPEFCLKGVTLKNFSTSNLNTDFLAKKIIPSKDKNILPKVFHYYGPALEFVQMIKLSDLPSCYMSDIEFELGLTNSTKQNSVLLLEQISSLCSKVGALFVLPCTISNILIPPPNQLSSRKWKEYIAKKPKTISVPDVEVKGECSSYYLLLQGNGNRRCKATLIHSANQINGSFALNLIHGKMKTKTEEAKLSFPFDLLSLPHFSGEQIVQREKQLANVQVLALEECLKRRKLAKQPETVSVAELKSLLVLTRKHFLDYFDAVIPKMILRKMDKIKTFNILNDFSPVEPNSSSLMETNPLEWPERHVLQNLETFEKTKQKMRTGSLPHSSEQLLGHKEGPRDSITLLDAKELLKYFTSDGLPIGDLQPLPIQKGEKTFVLTPELSPGKLQVLPFEKASVCHYHGIEYCLDDRKALERDGGFSELQSRLIRYETQTTCTRESFPVPTVLSPLPSPVVSSDPGSVPDGEVLQNELRTEVSRLKRRSKDLNCLYPRKRLVKSESSESLLSQTTGNSNHYHHHVTSRKPQTERSLPVTCPLVPIPSCETPKLATKTSSGQKSMHESKTSRQIKESRSQKHTRILKEVVTETLKKHSITETHECFTACSQRLFEISKFYLKDLKTSRGLFEEMKKTANNNAVQVIDWVLEKTSKK
